Data as given in PMC7819943, “Rice protein-binding microarrays: a tool to detect cis-acting elements near promoter regions in rice”.
Some of the results follow.

Sequences of proteins named here, by UniProt entry; tags and fusion partners are left off.
UniProt Q0JBA9, entry or part of it: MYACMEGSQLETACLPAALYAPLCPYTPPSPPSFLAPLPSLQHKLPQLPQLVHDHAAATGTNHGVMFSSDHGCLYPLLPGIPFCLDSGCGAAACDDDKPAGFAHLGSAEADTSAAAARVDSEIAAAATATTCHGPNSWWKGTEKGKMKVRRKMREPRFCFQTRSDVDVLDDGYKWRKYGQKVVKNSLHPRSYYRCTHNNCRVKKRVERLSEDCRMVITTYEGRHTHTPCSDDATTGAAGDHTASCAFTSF

molecular target: OsWRKY34 (Oryza sativa, UniProt Q0JBA9 1-250); assay: protein-binding microarray (RPBM); PBS, 2% BSA, 51.3 ng/ul salmon testes DNA, 50 uM zinc acetate, 200 nM TF, 25 C, 1 h; high values mean tight binding; conditions: protein: recombinant; tags: N-terminal polyhistidine and DsRed monomer fusion (pET32a); label: CyDye5-dUTP incorporated in the synthesized complementary strand; 3' TTTTT single-stranded linker to array surface; dsDNA, one strand shown
Procedure, shortened: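 The binding signal is fluorescence intensity per feature, in arbitrary units, read on an Axon 4000B scanner. Polyhistidine- and DsRed-tagged transcription factors (N-terminal fusions) from E. coli BL21-CodonPlus were purified on Ni–NTA and applied at 200 nM for 1 h at 25 °C to a double-stranded, BSA-blocked custom Agilent array in buffer with 50 µM zinc acetate.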

| Sequence | binding signal |
| --- | --- |
| CTTTTTTTTGATTTTTTTTATTTGTGGTTTGGATGTTTTTCGGAGTCACCTAGTGCAG | 9280 fluorescence intensity (a.u.) |
| AATTGAGGAGTTTGTTTGTTCATACAGGTAGGTTGTTCCACGGAGTCACCTAGTGCAG | 8910 fluorescence intensity (a.u.) |
| TTGTTTGGGGAGTCCATGGGCGGGGCCATCTACCTTCTCACGGAGTCACCTAGTGCAG | 9260 fluorescence intensity (a.u.) |
| GCTGCTCCTTCACCGGCCTTTTCACTAGGCTTCGCACTTTCGGAGTCACCTAGTGCAG | 9540 fluorescence intensity (a.u.) |
| GACAATTGGTCGGTTGATGTTGGGTTCCTTATTTGTACTACGGAGTCACCTAGTGCAG | 9740 fluorescence intensity (a.u.) |
| TTTCATATAATGGTATCCTTTAACCATTTTCATTTACACACGGAGTCACCTAGTGCAG | 8210 fluorescence intensity (a.u.) |
| TTCTTGGATAGTTAGTTGCTCACCCGATCCTGTATCCATGCGGAGTCACCTAGTGCAG | 9620 fluorescence intensity (a.u.) |
| CTGACTGACAGATCTCCCAGGCCGGTGTGTTCGATTTTTTCGGAGTCACCTAGTGCAG | 8820 fluorescence intensity (a.u.) |
| GGGTGGGCGTGATGGAGTTGGGTCGGCCGGGGTGTCCGGTCGGAGTCACCTAGTGCAG | 14500 fluorescence intensity (a.u.) |
| CAGAACAAATGTGGTGGTTGTTTGCTCCGTCTACAAGCTCCGGAGTCACCTAGTGCAG | 8100 fluorescence intensity (a.u.) |
| GATTTTGCTGTTCTTGCTATCTTCCCTGCTCTGCTCATCTCGGAGTCACCTAGTGCAG | 11400 fluorescence intensity (a.u.) |
| CCTTTTGCACACACACACACACACAAAACTTTATCTTTCTCGGAGTCACCTAGTGCAG | 8690 fluorescence intensity (a.u.) |
| CTCCTACTTTGCTTTTCTGCTGCACGCGTCGACCCTTTCTCGGAGTCACCTAGTGCAG | 12400 fluorescence intensity (a.u.) |
| CTACATCCTCTTTCATGAACTCTCGGTACAGAATTAGTTACGGAGTCACCTAGTGCAG | 8240 fluorescence intensity (a.u.) |
| CTACCTCTCCACTGCTCTGCTCATTTGCTTGGCTTTTGGCCGGAGTCACCTAGTGCAG | 8720 fluorescence intensity (a.u.) |
| ATCCATCGCCGTCCTCTGCTGAAAATGCTACACTTGTCCCCGGAGTCACCTAGTGCAG | 8890 fluorescence intensity (a.u.) |
| CGACCCAAACTTGCACACCTACTTCGCTAGCCTCGCCGCGCGGAGTCACCTAGTGCAG | 9500 fluorescence intensity (a.u.) |
| CCATCCGCTCCACTTCGTTCAGTTCCCTGGGCTTCGGCTGCGGAGTCACCTAGTGCAG | 8280 fluorescence intensity (a.u.) |
| GGGGATTTTTGTACGCTCACGGCATTTTTTTTGTCAGCGACGGAGTCACCTAGTGCAG | 17500 fluorescence intensity (a.u.) |
| CTAGTGTAATAAAATGTGGCCGTCTGTACTCAAAATTTTCCGGAGTCACCTAGTGCAG | 9030 fluorescence intensity (a.u.) |
| ACAGCAAATGTAGTTACAACCCAGTCCAATCTAAGGTCGTCGGAGTCACCTAGTGCAG | 8250 fluorescence intensity (a.u.) |
| GAGTCCACTCCACCTCCATCCAGATCAGTGTATATAAACCCGGAGTCACCTAGTGCAG | 9760 fluorescence intensity (a.u.) |
| GGTATCTATTTCACTTCCTTTCTCTACTCCCATTGTTAACCGGAGTCACCTAGTGCAG | 12500 fluorescence intensity (a.u.) |
| ATAAGGTCATTGGTTATGCTTCCAGCCCTGATGTTGTGGCCGGAGTCACCTAGTGCAG | 9650 fluorescence intensity (a.u.) |
| CTCGTGTTTTTTTGCCCATAATTGACCACAGAACTCTTGACGGAGTCACCTAGTGCAG | 8080 fluorescence intensity (a.u.) |
| TCCTACCAATGCAAGCGAACACCACATCCACACGTCGCCACGGAGTCACCTAGTGCAG | 9800 fluorescence intensity (a.u.) |
| GTCACATTGAATACCTGCCGTGATGCTGCCTTTGTTGCATCGGAGTCACCTAGTGCAG | 10200 fluorescence intensity (a.u.) |

| Sequence | binding signal |
| --- | --- |
| GCTCCGTCCCCACATGAACCTCCGCCAACTTGCCACGAAACGGAGTCACCTAGTGCAG | 10200 fluorescence intensity (a.u.) |
| TCGTTAACTTTTTAATAAACGTTTGACCTTTCGTCTTATTCGGAGTCACCTAGTGCAG | 10200 fluorescence intensity (a.u.) |
| AAGTCATCGAACTCACAAACGGGCCGTCCCGTCCTGTATCCGGAGTCACCTAGTGCAG | 8700 fluorescence intensity (a.u.) |
| TTGTTTCTGCAGACATGTGTAGCCATCAATCGATTCTTTGCGGAGTCACCTAGTGCAG | 8210 fluorescence intensity (a.u.) |
| CATCTTACTTTGGTTTTGCATTACGTTTTTACCCTTGGCTCGGAGTCACCTAGTGCAG | 11400 fluorescence intensity (a.u.) |
| ACTTGGAAACTGAGGCCTCTGCTAGTGCTTTCATTTTTTTCGGAGTCACCTAGTGCAG | 8110 fluorescence intensity (a.u.) |
| ACACCCCTCGCCCGTCGCTGTGCTGTCCATATATACGGAACGGAGTCACCTAGTGCAG | 9680 fluorescence intensity (a.u.) |
| CTTTGCTCGTGCTTTGCTTTGCTTGTTGCTCTCCTCGCGTCGGAGTCACCTAGTGCAG | 8870 fluorescence intensity (a.u.) |
| GTTCCTTTCAGAAACTGGCATTCGAGTTTTGAGTTTCTCGCGGAGTCACCTAGTGCAG | 8720 fluorescence intensity (a.u.) |
| GCTGCTGCTGCTACTTTTCAGCGTTTATCATTCTGTTTGTCGGAGTCACCTAGTGCAG | 10500 fluorescence intensity (a.u.) |
| CGTTTTTGTGCATCACAATATCACATCACTCTTCATGTACCGGAGTCACCTAGTGCAG | 11000 fluorescence intensity (a.u.) |
| TCGATCCTCGTCGCCGGCCGCCGCCGCTACCCCATTCCGACGGAGTCACCTAGTGCAG | 9150 fluorescence intensity (a.u.) |
| CATATTTTGTCATTTTTCCTTGGCAACTGTAACTCATTTACGGAGTCACCTAGTGCAG | 10400 fluorescence intensity (a.u.) |
| CCAACACTATACCACCACCAGTATCATTGTACTACTACCCCGGAGTCACCTAGTGCAG | 8950 fluorescence intensity (a.u.) |
| CTTTTAAGCCTAATTGCGCCATGATTTGACAATGTGTTGCCGGAGTCACCTAGTGCAG | 8530 fluorescence intensity (a.u.) |
| TTCACGACTTATTTGCATCTCTAACAAACTCCTGCTAGACCGGAGTCACCTAGTGCAG | 9590 fluorescence intensity (a.u.) |
| CCTTTTGGACGTACGTCGATAGTTGGGTAAATATGAAAAACGGAGTCACCTAGTGCAG | 11400 fluorescence intensity (a.u.) |
| CCTCACATCTTCTTCTTCATCTCCCTGTCTCTGTCTCTGTCGGAGTCACCTAGTGCAG | 13500 fluorescence intensity (a.u.) |
| GTTTTTTTGTTTTTCACTGTAACTTTATTCAACGGAATACCGGAGTCACCTAGTGCAG | 8450 fluorescence intensity (a.u.) |
| TTTCTACTATAGTTCTTAGGTGTTCTTAGACTTACTTCCTCGGAGTCACCTAGTGCAG | 9500 fluorescence intensity (a.u.) |
| AATCCCACAGGCAACAGCCCACCATCAAGTTCTGCTTTTCCGGAGTCACCTAGTGCAG | 15500 fluorescence intensity (a.u.) |
| CTCTTTTAACATTTTTTCTAACTTAATCCATTTTCTTTTCCGGAGTCACCTAGTGCAG | 8120 fluorescence intensity (a.u.) |
| CCCTTCGTCGACACGCACCCCTGACCTCATATTTTCGCTTCGGAGTCACCTAGTGCAG | 11800 fluorescence intensity (a.u.) |
| CATAAACTTTTAACTTTTCCATCACATCGTTCCAATTTCACGGAGTCACCTAGTGCAG | 8210 fluorescence intensity (a.u.) |
| GTAAACTTATTCTTTGGGCGTTGTTATTATTTGGGGCAATCGGAGTCACCTAGTGCAG | 11400 fluorescence intensity (a.u.) |
| TTTTGACTCATTTTTGGTCCTTTTATGTATGTCGTTTTCGCGGAGTCACCTAGTGCAG | 10600 fluorescence intensity (a.u.) |
| GGCGGCGGCGGCGGCGGAGGTTGGGAAGGAGAGGGAGGGGCGGAGTCACCTAGTGCAG | 11800 fluorescence intensity (a.u.) |

A section of the results above, for reference:

| Sequence | binding signal |
| --- | --- |
| ACTTGGAAACTGAGGCCTCTGCTAGTGCTTTCATTTTTTTCGGAGTCACCTAGTGCAG | 8110 fluorescence intensity (a.u.) |
| ACACCCCTCGCCCGTCGCTGTGCTGTCCATATATACGGAACGGAGTCACCTAGTGCAG | 9680 fluorescence intensity (a.u.) |
